Results are given in words; binding and its absence hold for the method and conditions named. Binding seen in cells or lysates may run through a third protein. Binding can be weak; no strength is given. Tags and fused reporters may be left off the sequences shown.
Legend:
[1] = biological target: T1, FLAG-dADA2bS (Drosophila melanogaster) (UniProt Q8I8V0); assay: co-IP; FLAG- and HA-tagged proteins co-expressed in S2 cells; lysis in RIPA buffer (150 mM NaCl, 1% NP-40, 0.5% SDS); lysates incubated overnight with anti-FLAG M2-agarose beads; five washes with TBST (400 mM NaCl, 1% Tween 20); blots with anti-HA and anti-FLAG
T1 sequence: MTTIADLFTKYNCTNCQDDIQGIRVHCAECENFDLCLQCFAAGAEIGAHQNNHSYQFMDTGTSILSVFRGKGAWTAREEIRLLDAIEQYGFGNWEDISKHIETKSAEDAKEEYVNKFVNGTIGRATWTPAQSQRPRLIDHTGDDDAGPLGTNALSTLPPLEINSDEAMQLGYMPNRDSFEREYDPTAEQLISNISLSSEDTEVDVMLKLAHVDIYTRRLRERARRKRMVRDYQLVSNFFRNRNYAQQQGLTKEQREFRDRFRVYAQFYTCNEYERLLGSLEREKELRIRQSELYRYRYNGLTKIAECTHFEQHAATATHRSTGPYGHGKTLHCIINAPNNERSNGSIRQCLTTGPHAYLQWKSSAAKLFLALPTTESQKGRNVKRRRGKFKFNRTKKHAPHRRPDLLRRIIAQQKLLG

[2] = biological target: T2, FLAG-dADA2bL (Drosophila melanogaster) (UniProt Q8I8V0); assay: as above
T2 sequence: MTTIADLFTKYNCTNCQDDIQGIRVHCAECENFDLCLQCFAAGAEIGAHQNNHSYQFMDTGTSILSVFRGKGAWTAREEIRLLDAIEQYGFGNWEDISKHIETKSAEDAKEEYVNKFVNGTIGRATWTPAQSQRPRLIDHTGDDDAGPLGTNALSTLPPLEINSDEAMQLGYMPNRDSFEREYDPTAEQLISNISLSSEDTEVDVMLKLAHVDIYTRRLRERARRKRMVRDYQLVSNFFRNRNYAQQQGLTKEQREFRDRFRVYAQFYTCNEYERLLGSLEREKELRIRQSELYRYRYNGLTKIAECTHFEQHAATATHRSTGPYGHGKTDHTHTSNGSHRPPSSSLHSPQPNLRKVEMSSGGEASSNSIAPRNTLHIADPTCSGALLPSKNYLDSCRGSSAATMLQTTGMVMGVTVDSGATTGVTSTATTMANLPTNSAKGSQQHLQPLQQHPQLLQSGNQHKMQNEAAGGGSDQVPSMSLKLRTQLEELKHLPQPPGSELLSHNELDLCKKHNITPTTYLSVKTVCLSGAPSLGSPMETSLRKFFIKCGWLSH

binding [1] | binding [2] | Substance
binds | binds | HA-dADA3 (Drosophila melanogaster)
binds | binds | HA-dp53 (Drosophila melanogaster)

Reference: paper PMC3598691
